Literature values, collected in patent US9060981B2, “Marker associated with non-alcoholic steatohepatitis” (MOCHIDA PHARMACEUTICAL CO., LTD., priority 2009, dated 2015).
“Also recorded” adds a separate entry of the source. At least one compound was matched to its structure with a doubt left.

System: steatohepatitis model rats
Settings: rat, in vivo; cited from earlier work

Which “activity of stellate cell” value does the source give for `CCCc1nc(C(C)(C)O)c(C(=O)O)n1Cc1ccc(-c2ccccc2-c2nnn[nH]2)cc1` [olmesartan] here?
The value was “suppression”.

What about the “expression of fibrosis gene (TGF-β, alpha 1[I] procollagen, etc.) in the liver” value of the same molecule?
The value was “suppression; also recorded: decrease”.

And the liver fibrosis?
The liver fibrosis was “suppression; also recorded: suppressed”.
